Results taken from paper PMC11919600.
Results are given in words; binding and its absence hold for the method and conditions named. In cells and extracts the contact can be indirect. Some binding calls cover weakened binding; strength is not graded here.

The chains behind the UniProt entries cited, without tags or fusion partners.
UniProt P21926: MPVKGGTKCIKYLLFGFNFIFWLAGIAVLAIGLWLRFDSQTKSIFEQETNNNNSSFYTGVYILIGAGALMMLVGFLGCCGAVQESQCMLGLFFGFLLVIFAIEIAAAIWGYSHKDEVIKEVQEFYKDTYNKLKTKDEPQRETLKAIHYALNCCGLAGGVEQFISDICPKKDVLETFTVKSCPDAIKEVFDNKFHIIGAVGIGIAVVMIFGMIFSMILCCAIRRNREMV
UniProt Q99816: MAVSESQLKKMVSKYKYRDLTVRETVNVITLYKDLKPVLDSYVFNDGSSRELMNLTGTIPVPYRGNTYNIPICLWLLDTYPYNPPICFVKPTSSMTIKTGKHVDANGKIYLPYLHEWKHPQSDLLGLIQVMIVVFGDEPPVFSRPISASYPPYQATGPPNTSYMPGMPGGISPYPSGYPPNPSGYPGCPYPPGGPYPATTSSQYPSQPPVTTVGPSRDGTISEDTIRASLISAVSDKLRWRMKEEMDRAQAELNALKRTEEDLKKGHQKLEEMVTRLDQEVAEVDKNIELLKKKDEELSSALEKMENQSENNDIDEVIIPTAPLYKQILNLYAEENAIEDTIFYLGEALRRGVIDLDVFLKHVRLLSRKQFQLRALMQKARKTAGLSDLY

Experiments:
[1] = molecular target: tetraspanin CD9 (endogenous) (human (endogenous in HEK293)) (UniProt P21926); experiment: co-IP; anti-CD9 Dynabeads with whole-cell lysates of HEK293 WT or CD9-RFP cells; NP-40 lysis buffer (50 mM Tris-Cl pH 8.0, 150 mM NaCl, 0.5% NP-40); 1 h, 4 °C; immunoblot
[2] = molecular target: CD9 with a C-terminal RFP tag (UniProt P21926); experiment: co-IP; RFP-Trap magnetic agarose beads with whole-cell lysates of CD9-RFP cells (HEK293 WT lysate and PBS as controls); NP-40 lysis buffer (50 mM Tris-Cl pH 8.0, 150 mM NaCl, 0.5% NP-40); 1 h, 4 °C; immunoblot

binding [1]: binds
binding [2]: binds
Substance: TSG101 (from UniProt Q99816 1-390)
